Test results as given in paper PMC4758748.
No constants are given. Whether binding was seen depends on the method and setting. In cells and extracts the contact can be indirect. Some binding calls cover weakened binding; strength is not graded here. Where a sequence is shown, tags or fusion partners need not be part of it.

T1: Streptag-Chs2-215-629 (S. cerevisiae) (UniProt P14180)
T1 sequence: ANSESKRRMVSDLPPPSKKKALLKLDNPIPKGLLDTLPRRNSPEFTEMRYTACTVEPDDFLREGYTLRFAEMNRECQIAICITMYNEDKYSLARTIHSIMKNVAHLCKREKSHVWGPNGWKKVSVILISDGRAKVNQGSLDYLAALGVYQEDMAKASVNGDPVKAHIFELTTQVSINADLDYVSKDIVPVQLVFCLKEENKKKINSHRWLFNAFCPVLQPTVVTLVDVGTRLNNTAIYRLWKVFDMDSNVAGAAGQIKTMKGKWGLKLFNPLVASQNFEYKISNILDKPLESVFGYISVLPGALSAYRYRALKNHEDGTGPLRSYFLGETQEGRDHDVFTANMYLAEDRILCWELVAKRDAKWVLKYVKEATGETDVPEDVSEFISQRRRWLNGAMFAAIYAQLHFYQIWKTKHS

T2: 6His-tagged Inn1 (S. cerevisiae) (UniProt P53901)
T2 sequence: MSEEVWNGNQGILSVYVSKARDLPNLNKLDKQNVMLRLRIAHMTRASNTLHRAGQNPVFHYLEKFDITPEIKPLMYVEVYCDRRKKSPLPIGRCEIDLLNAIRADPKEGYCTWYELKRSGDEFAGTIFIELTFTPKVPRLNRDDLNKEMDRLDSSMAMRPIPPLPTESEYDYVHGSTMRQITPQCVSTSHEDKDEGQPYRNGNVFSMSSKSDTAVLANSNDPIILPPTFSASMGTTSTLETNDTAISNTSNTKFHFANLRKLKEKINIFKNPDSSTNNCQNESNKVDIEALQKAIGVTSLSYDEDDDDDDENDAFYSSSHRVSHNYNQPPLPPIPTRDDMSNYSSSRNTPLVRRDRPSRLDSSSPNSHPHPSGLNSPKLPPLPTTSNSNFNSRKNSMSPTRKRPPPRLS

T3: Chs2-1-629 (recombinant, E. coli) (S. cerevisiae) (UniProt P14180)
T3 sequence: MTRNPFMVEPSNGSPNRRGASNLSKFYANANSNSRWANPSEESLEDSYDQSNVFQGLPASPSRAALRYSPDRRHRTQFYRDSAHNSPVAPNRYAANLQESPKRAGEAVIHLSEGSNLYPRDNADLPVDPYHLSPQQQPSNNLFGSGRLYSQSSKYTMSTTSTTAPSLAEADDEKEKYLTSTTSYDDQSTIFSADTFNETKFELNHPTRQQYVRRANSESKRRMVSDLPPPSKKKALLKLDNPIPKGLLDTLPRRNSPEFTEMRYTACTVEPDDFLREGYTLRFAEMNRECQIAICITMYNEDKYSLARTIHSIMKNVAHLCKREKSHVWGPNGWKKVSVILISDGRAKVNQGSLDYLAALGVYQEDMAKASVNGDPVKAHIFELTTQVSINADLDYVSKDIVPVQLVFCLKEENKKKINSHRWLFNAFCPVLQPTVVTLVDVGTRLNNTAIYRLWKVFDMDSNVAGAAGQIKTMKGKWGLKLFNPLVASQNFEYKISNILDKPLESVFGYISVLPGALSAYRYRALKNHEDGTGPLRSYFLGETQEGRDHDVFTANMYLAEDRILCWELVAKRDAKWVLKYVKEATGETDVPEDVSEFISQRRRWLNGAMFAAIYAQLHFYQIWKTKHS


Tests used:
[1] = target: T1, Streptag-Chs2-215-629 (S. cerevisiae); experiment: pull-down; three E. coli cultures (6His-Inn1, Strep-tag-Chs2-215-629, untagged Cyk3) mixed, one common cell extract; Strep-Tactin Superflow, then Ni-NTA agarose; immunoblot with anti-Streptag, anti-His and anti-Cyk3
[2] = target: T2, 6His-tagged Inn1 (S. cerevisiae); experiment: as above
[3] = target: T3, Chs2-1-629 (recombinant, E. coli) (S. cerevisiae); experiment: pull-down; E. coli cultures expressing a Streptag fusion and a 6His fusion mixed after IPTG induction, one common cell extract with two recombinant proteins; Strep-Tactin Superflow (eluted with 2.5 mM d-Desthiobiotin), then Ni-NTA agarose (eluted with 250 mM imidazole); SDS-PAGE, Coomassie, immunoblot (anti-Streptag, anti-His), mass spectrometry of the band
[4] = target: T1, Streptag-Chs2-215-629 (S. cerevisiae); experiment: as above

Row | binding [1] | binding [2] | binding [3] | binding [4] | Binder
1 | binds | binds | – | – | untagged Cyk3 (recombinant, E. coli) (protein, UniProt Q07533 1-885) MATNLTSLKPPFKVKARYGWSGQTKGDLGFLEGDIMEVTRIAGSWFYGKLLRNKKCSGYFPHNFVILLEERLNSSTENGRQPSKIVESFEKSNKVVIPPVPSRYSDERPRPKKKLSSSMPNSPKKPVDSLTKARKAKSKEMVNEKNIYNTQSSRHHNNSAPNLPLASHSKPQVRNFEESMNNPLPPLPPLPDLDNMRKTDKRAPKKSYSANDLHMARSSREYNYYKDNQKFYDGFIPEKRYSLEEDSISSGLFSNSQYLNDSACSSENSFALMSDFSATSAGSFARHKYAQSFSDSLQRSQNANGCSTKINDSQEFGDSNASSRNGKMGDILRKIIIPKRNTNIYSSSVSSPKSPKAYPKLPDIQNLNLSATPDEARDWIAVKCHLNRARTLTKYDKHPRYMRALEENRDLILHPQDSIYNGLNTNEVKGNTKPGLVDVELAELNIEYIDKMTWKRCIRDGTMTLDSWAQTTFSARYSTVLEKLRGIYIFCTEMFALTDDNGTSDFSAEPQNLEKILYRKHCTPYELTWLFKKLANSLGITCEIVIGFLKTPSAINWEFKYNHCWLRILVNKEWRFIDVILGNVTNPIHEFVNNRKIKKAENSYFLMAPLEMIYTHIPPREFEQHIVPSIDQLSALYLPLVFPSFFKNELKLYKFSTALSFLEDSEIYECSLEIPNDVEVFASVVIPTDNEEASSAYRNMELALTQIKKQKAESGRRIALIKAVLPPNVNKGSLYIHSGVRGTQTSIANIHPLSMMVPLTHKGSNMKYEFVIKIPSESIQKIELYIVEPQSRYLFVGNEYSFEVIQSPSDGIVYSSDEGPNQNRKQPMAIKSPSGRVHELVKSDPHFPYGTWKGSIKIKEPGVWSALVIADSGIGWSVFAEWLCV
2 | binds | – | binds | binds | 6His-tagged Inn1 (protein, UniProt P53901 1-409) MSEEVWNGNQGILSVYVSKARDLPNLNKLDKQNVMLRLRIAHMTRASNTLHRAGQNPVFHYLEKFDITPEIKPLMYVEVYCDRRKKSPLPIGRCEIDLLNAIRADPKEGYCTWYELKRSGDEFAGTIFIELTFTPKVPRLNRDDLNKEMDRLDSSMAMRPIPPLPTESEYDYVHGSTMRQITPQCVSTSHEDKDEGQPYRNGNVFSMSSKSDTAVLANSNDPIILPPTFSASMGTTSTLETNDTAISNTSNTKFHFANLRKLKEKINIFKNPDSSTNNCQNESNKVDIEALQKAIGVTSLSYDEDDDDDDENDAFYSSSHRVSHNYNQPPLPPIPTRDDMSNYSSSRNTPLVRRDRPSRLDSSSPNSHPHPSGLNSPKLPPLPTTSNSNFNSRKNSMSPTRKRPPPRLS
